These are yes or no findings as the source states them, for the method shown. Some binding calls cover weakened binding; strength is not graded here.
T1: GajA (Bacillus cereus VD045) (UniProt J8H9C1)
T1 sequence: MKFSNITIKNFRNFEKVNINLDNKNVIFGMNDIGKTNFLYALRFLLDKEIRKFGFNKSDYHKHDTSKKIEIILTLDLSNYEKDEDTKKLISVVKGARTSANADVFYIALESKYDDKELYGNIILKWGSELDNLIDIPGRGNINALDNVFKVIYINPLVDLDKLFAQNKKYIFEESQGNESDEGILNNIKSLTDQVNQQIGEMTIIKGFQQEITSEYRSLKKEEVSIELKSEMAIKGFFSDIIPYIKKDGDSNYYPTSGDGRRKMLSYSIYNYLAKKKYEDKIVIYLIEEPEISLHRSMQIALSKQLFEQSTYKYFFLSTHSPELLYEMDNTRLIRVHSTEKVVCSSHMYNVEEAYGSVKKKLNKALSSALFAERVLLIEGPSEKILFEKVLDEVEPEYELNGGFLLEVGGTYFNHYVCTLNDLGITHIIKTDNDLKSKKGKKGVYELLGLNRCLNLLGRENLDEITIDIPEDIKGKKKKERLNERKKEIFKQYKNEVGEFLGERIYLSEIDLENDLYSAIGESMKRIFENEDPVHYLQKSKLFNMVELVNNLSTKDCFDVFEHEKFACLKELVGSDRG


Tests used:
[1] = biological target: T1, GajA (Bacillus cereus VD045); experiment: SEC; size exclusion chromatography of GajA with the NTR or the CTR construct of GajB (Supplementary Fig. 5a, b); conditions not given
[2] = biological target: T1, GajA (Bacillus cereus VD045); experiment: SEC-MALS; Superdex 200 10/300 Increase, samples injected at 1 mg/ml in Buffer B (10 mM Tris-HCl pH 7.5, 300 mM NaCl, 2 mM DTT), 0.5 ml/min; GajA, GajB and the co-purified Gabija complex; both purified
[3] = biological target: T1, GajA (Bacillus cereus VD045); experiment: cryo-EM structure; Gabija complex (GajA with GajB, co-expressed and co-purified), 0.5 mg/ml in 100 mM NaCl, single particle analysis with D2 symmetry, 3.6 Å; both purified

| binding [1] | binding [2] | binding [3] | Binder |
| --- | --- | --- | --- |
| binds | – | – | NTR region of GajB (N-terminal region, residues 1-223) (domain or fragment, UniProt J8HQ06 1-223) MSREQIIKDGGNILVTAGAGSGKTTILVSKIEADLKENKTHYSIAAVTFTNKAAKEIEGRLGYSSRGNFIGTNDGFVESEIIRPFIKDAFGNDYPDNFTAEYFDNQFASYDKGLQVLKYQNILGTYSNPKKNFKFQLALDILKKSLVARQYIFSKYFKIFIDEYQDSDKDMHNLFMYLKDQLKIKLFIVGDPKQSIYIWRGAEPENFNGLIENSTDFNKYHLT |
| – | binds | binds | GajB (enzyme, UniProt J8HQ06 1-494) MSREQIIKDGGNILVTAGAGSGKTTILVSKIEADLKENKTHYSIAAVTFTNKAAKEIEGRLGYSSRGNFIGTNDGFVESEIIRPFIKDAFGNDYPDNFTAEYFDNQFASYDKGLQVLKYQNILGTYSNPKKNFKFQLALDILKKSLVARQYIFSKYFKIFIDEYQDSDKDMHNLFMYLKDQLKIKLFIVGDPKQSIYIWRGAEPENFNGLIENSTDFNKYHLTSNFRCCQDIQNYSNLFNEETRSLIKEKNEVQNVISIADDMPISDILLKLTEEKQVLNIEAELVILVRRRNQAIEIMKELNEEGFNFIFIPQTPLDRATPNATLLKEVIKYVKNDRYSIYDLAAEIVGNLSSREIKEIQKIINELLVPNINQVLINQVLINLFAKLEITLDTREITAFTEVMMTNEFDIAFDTNEYLHKIFTVHSAKGLEFNQVIITASDYNVHYNRDTNEHYVATTRAKDKLIVIMDNKKYSDYIETLMKELKIKNIIKSI |

From paper PMC10822852, “Structural and biochemical insights into the mechanism of the Gabija bacterial immunity system” (Nature Communications, 2024)
